PubChem BioAssay AID1259285 | Sanger Institute, 2017

Aim: 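Kinases needed for HCC56 growth and kinases whose loss boosts drug effects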 (primary screen)
System: human HCC56 colorectal cancer cells
Reagents: siRNA pool against human genes
Conditions: DMSO vehicle, or anchor drug BYL719 at 1 µM, cetuximab at 5 µg/ml, or trametinib at 10 nM
Measured: 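Replicate-averaged viability relative to non-targeting siRNA, expressed as a robust z-score from controls, plus a synergy score for each of three anchor drugs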
Scale: viability robust z-score, no drug: higher = more viable cells, weaker knock-down effect; viability vs non-targeting pool, no drug: higher = more viable cells; synergy score with BYL719: higher = stronger combined killing with BYL719; synergy score with cetuximab: higher = stronger combined killing with cetuximab; synergy score with trametinib: higher = stronger combined killing with trametinib
Hit rule: 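Essential when the drug-free viability robust z-score falls below -3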
Meaning of the calls: active = essential without drug; inactive = no change without drug
Shown is one part, drawn at random, of 794 reagents tested. Of all reagents, 20 (2.5%) were called active. 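Calls rest on the drug-free arm alone and ignore synergy scores; viability ratios seem to be capped at 1.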 Reagent sequences are not shown. The record does not give: the amount of reagent, the time to read-out.

| Target gene | viability robust z-score, no drug | viability vs non-targeting pool, no drug | synergy score with BYL719 | synergy score with cetuximab | synergy score with trametinib | call |
| --- | --- | --- | --- | --- | --- | --- |
| RET (GeneID 5979) | 0.458 | 1 | -0.162 | -0.142 | -0.132 | inactive |
| DGUOK (GeneID 1716) | -3.05 | 0.699 | 0.0962 | 0.0775 | -0.0385 | active |
| PDPK1 (GeneID 5170) | 0.13 | 0.972 | 0.0801 | -0.0681 | -0.0175 | inactive |
| STK10 (GeneID 6793) | -1.1 | 0.866 | 0.116 | 0.145 | -0.0246 | inactive |
| NIM1K (GeneID 167359) | 0.458 | 1 | -0.105 | -0.0727 | -0.0417 | inactive |
| CHEK1 (GeneID 1111) | -5.58 | 0.481 | -0.0274 | -0.0394 | -0.144 | active |
| GATA3 (GeneID 2625) | -0.875 | 0.886 | -0.152 | -0.0455 | -0.0613 | inactive |
| RIOK3 (GeneID 8780) | 0.458 | 1 | 0.0638 | -0.00405 | 0.0639 | inactive |
| EIF2AK3 (GeneID 9451) | 0.458 | 1 | -0.138 | -0.142 | 0.0697 | inactive |
| TRPM7 (GeneID 54822) | 0.458 | 1 | -0.017 | -0.142 | -0.0224 | inactive |
| PKIA (GeneID 5569) | 0.458 | 1 | -0.162 | -0.142 | -0.0994 | inactive |
| GSK3A (GeneID 2931) | -0.47 | 0.92 | -0.124 | -0.0374 | 0.0174 | inactive |
| BRD2 (GeneID 6046) | 0.382 | 0.993 | -0.0236 | -0.124 | -0.0661 | inactive |
| NUP98 (GeneID 4928) | -0.733 | 0.898 | 0.216 | 0.268 | 0.108 | inactive |
| DGKA (GeneID 1606) | -0.728 | 0.898 | -0.0206 | -0.0282 | -0.0113 | inactive |
| EPHA1 (GeneID 2041) | 0.458 | 1 | -0.0624 | -0.0893 | 0.0498 | inactive |
| MAP3K7 (GeneID 6885) | 0.458 | 1 | -0.119 | -0.112 | -0.0587 | inactive |
| PIP4K2A (GeneID 5305) | 0.458 | 1 | -0.162 | -0.099 | -0.0599 | inactive |

Targets above whose target name begins with N or n (2):
| Target gene | viability robust z-score, no drug | viability vs non-targeting pool, no drug | synergy score with BYL719 | synergy score with cetuximab | synergy score with trametinib | call |
| --- | --- | --- | --- | --- | --- | --- |
| NIM1K (GeneID 167359) | 0.458 | 1 | -0.105 | -0.0727 | -0.0417 | inactive |
| NUP98 (GeneID 4928) | -0.733 | 0.898 | 0.216 | 0.268 | 0.108 | inactive |

Additional records:
| Target gene | viability robust z-score, no drug | viability vs non-targeting pool, no drug | synergy score with BYL719 | synergy score with cetuximab | synergy score with trametinib | call |
| --- | --- | --- | --- | --- | --- | --- |
| IGF2R (GeneID 3482) | 0.458 | 1 | -0.132 | -0.142 | -0.176 | inactive |
| JAK2 (GeneID 3717) | 0.458 | 1 | -0.0426 | -0.0939 | -0.0537 | inactive |
| MOK (GeneID 5891) | 0.458 | 1 | -0.122 | -0.142 | -0.0202 | inactive |
| PBK (GeneID 55872) | 0.458 | 1 | -0.156 | -0.112 | -0.0492 | inactive |
| AGK (GeneID 55750) | 0.458 | 1 | -0.0206 | -0.142 | -0.0411 | inactive |
| MYLK (GeneID 4638) | 0.458 | 1 | -0.067 | 0.0106 | 0.0464 | inactive |
| PCK2 (GeneID 5106) | 0.458 | 1 | -0.0971 | -0.142 | -0.124 | inactive |
| ALPK1 (GeneID 80216) | 0.458 | 1 | -0.162 | -0.142 | -0.0655 | inactive |
| DCLK3 (GeneID 85443) | 0.458 | 1 | -0.0481 | -0.0346 | -0.0306 | inactive |
| MAP3K3 (GeneID 4215) | -1.09 | 0.867 | -0.201 | -0.217 | -0.0499 | inactive |
| MYO3B (GeneID 140469) | 0.458 | 1 | -0.149 | -0.142 | -0.144 | inactive |
| PRKDC (GeneID 5591) | -0.432 | 0.924 | -0.00359 | 0.11 | 0.0425 | inactive |
| MOS (GeneID 4342) | 0.458 | 1 | 0.0247 | -0.141 | 0.0191 | inactive |
| KSR2 (GeneID 283455) | -2.28 | 0.765 | -0.205 | -0.0608 | -0.196 | inactive |
| NR2F2 (GeneID 7026) | -2.03 | 0.786 | -0.072 | -0.0254 | -0.0538 | inactive |
| MAPK4 (GeneID 5596) | 0.458 | 1 | 0.12 | 0.16 | 0.171 | inactive |
| NME7 (GeneID 29922) | 0.458 | 1 | -0.162 | -0.142 | -0.141 | inactive |
| SYK (GeneID 6850) | -3.7 | 0.643 | 0.0943 | 0.0959 | 0.0197 | active |
| SRC (GeneID 6714) | 0.458 | 1 | -0.0945 | -0.142 | -0.144 | inactive |
| MAP3K10 (GeneID 4294) | 0.458 | 1 | -0.162 | -0.142 | -0.07 | inactive |
| ACVR1 (GeneID 90) | -0.23 | 0.941 | 0.0531 | -0.0522 | -0.0464 | inactive |
| SRMS (GeneID 6725) | 0.458 | 1 | 0.0303 | -0.142 | 0.053 | inactive |
| HIPK2 (GeneID 28996) | 0.458 | 1 | -0.162 | -0.0519 | 0.101 | inactive |
| MPP2 (GeneID 4355) | -0.954 | 0.879 | -0.116 | -0.132 | 0.0144 | inactive |
| GCK (GeneID 2645) | -2.05 | 0.784 | 0.0471 | 0.0616 | 0.047 | inactive |
| DLG4 (GeneID 1742) | 0.458 | 1 | -0.162 | -0.142 | -0.11 | inactive |
| ARID1A (GeneID 8289) | 0.458 | 1 | 0.0836 | -0.0475 | -0.0204 | inactive |
| STK35 (GeneID 140901) | 0.284 | 0.985 | -0.0252 | 0.0204 | 0.0403 | inactive |
| DDR1 (GeneID 780) | 0.458 | 1 | -0.162 | -0.142 | -0.164 | inactive |
| GK (GeneID 2710) | 0.458 | 1 | -0.162 | -0.142 | -0.0758 | inactive |
| CAMK2A (GeneID 815) | 0.458 | 1 | -0.162 | -0.142 | -0.0558 | inactive |
| MAP4K4 (GeneID 9448) | 0.458 | 1 | -0.162 | -0.142 | -0.134 | inactive |
